In this assay the target is CYCLIN-… KINASE A;1 (Arabidopsis thaliana) (UniProt P24100). The assay can be described thus: co-purification on Strep-Tactin sepharose; CDKA;1-CYCD2;1 complexes expressed and purified by the system of ref. 36, incubated with 2 mM ATP for 1 h at 30 °C, bound to Strep-Tactin sepharose equilibrated with kinase buffer, eluted with 2.5 mM desthiobiotin.

Results are given in words; binding and its absence hold for the method and conditions named. Some entries that bind do so weakly or less than the wild type.

B1: CYCLIN D2;1 (protein, UniProt P42752 1-361)
chain: MAENLACGETSESWIIDNDDDDINYGGGFTNEIDYNHQLFAKDDNFGGNGSIPMMGSSSSSLSEDRIKEMLVREIEFCPGTDYVKRLLSGDLDLSVRNQALDWILKVCAHYHFGHLCICLSMNYLDRFLTSYELPKDKDWAAQLLAVSCLSLASKMEETDVPHIVDLQVEDPKFVFEAKTIKRMELLVVTTLNWRLQALTPFSFIDYFVDKISGHVSENLIYRSSRFILNTTKAIEFLDFRPSEIAAAAAVSVSISGETECIDEEKALSSLIYVKQERVKRCLNLMRSLTGEENVRGTSLSQEQARVAVRAVPASPVGVLEATCLSYRSEERTVESCTNSSQSSPDNNNNNNNSNKRRRKQ
As for B1, the binding result is “binds”.
